Results taken from the supplement of paper PMC11732987, “Enantioselective OTUD7B fragment discovery through chemoproteomics screening and high-throughput optimisation” (Communications Chemistry, 2025).
The list shows a part of the results. The data scatter; read single values as rough.

Chains of the proteins cited; added tags and fusions are not shown. Lines headed by an entry give the natural chain unless they say otherwise; changes in a name come on top. Residues count along the entry.
UniProt Q15057: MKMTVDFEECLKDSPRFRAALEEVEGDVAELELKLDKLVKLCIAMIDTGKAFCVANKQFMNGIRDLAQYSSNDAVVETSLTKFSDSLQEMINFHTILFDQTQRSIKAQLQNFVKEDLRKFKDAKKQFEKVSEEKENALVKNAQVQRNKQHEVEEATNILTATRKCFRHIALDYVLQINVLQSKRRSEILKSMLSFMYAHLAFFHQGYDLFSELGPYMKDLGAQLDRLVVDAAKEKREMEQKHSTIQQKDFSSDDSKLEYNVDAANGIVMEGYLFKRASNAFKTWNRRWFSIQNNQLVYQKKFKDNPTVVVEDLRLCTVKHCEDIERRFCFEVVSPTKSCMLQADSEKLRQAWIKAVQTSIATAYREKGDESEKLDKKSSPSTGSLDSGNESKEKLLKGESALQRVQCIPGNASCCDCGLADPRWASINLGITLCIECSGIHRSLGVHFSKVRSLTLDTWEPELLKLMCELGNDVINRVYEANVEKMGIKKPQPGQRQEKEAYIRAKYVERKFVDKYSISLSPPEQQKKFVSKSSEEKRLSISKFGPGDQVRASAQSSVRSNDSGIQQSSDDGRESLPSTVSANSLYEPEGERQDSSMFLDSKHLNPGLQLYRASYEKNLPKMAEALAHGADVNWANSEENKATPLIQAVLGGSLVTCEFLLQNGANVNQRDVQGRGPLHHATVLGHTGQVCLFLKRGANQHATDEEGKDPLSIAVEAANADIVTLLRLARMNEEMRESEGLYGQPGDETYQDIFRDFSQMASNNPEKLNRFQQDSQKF
UniProt Q12979: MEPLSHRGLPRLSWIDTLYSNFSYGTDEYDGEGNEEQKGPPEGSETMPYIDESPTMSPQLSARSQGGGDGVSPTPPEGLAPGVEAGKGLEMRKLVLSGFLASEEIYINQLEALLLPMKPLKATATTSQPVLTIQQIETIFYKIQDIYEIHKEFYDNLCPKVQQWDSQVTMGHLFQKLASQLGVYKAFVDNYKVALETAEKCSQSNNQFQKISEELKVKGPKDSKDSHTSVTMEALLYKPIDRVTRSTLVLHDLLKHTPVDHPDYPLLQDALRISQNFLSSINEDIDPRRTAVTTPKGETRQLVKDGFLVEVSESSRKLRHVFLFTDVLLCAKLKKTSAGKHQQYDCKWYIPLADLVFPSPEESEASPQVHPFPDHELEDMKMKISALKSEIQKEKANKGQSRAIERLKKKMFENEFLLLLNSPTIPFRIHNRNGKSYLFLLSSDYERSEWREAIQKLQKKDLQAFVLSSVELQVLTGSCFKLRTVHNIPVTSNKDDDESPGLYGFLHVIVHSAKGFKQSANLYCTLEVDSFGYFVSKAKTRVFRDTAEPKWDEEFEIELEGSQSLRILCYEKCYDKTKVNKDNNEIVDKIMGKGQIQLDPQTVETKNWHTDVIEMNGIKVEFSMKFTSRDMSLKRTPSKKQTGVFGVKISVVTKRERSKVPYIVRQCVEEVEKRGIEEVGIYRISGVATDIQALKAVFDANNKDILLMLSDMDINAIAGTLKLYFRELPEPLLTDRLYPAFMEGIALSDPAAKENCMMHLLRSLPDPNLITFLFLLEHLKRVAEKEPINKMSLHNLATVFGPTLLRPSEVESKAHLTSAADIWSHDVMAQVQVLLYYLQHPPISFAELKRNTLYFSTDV
UniProt P16219, 149-171: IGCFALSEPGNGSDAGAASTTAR
UniProt P00519, whole entry, looked up: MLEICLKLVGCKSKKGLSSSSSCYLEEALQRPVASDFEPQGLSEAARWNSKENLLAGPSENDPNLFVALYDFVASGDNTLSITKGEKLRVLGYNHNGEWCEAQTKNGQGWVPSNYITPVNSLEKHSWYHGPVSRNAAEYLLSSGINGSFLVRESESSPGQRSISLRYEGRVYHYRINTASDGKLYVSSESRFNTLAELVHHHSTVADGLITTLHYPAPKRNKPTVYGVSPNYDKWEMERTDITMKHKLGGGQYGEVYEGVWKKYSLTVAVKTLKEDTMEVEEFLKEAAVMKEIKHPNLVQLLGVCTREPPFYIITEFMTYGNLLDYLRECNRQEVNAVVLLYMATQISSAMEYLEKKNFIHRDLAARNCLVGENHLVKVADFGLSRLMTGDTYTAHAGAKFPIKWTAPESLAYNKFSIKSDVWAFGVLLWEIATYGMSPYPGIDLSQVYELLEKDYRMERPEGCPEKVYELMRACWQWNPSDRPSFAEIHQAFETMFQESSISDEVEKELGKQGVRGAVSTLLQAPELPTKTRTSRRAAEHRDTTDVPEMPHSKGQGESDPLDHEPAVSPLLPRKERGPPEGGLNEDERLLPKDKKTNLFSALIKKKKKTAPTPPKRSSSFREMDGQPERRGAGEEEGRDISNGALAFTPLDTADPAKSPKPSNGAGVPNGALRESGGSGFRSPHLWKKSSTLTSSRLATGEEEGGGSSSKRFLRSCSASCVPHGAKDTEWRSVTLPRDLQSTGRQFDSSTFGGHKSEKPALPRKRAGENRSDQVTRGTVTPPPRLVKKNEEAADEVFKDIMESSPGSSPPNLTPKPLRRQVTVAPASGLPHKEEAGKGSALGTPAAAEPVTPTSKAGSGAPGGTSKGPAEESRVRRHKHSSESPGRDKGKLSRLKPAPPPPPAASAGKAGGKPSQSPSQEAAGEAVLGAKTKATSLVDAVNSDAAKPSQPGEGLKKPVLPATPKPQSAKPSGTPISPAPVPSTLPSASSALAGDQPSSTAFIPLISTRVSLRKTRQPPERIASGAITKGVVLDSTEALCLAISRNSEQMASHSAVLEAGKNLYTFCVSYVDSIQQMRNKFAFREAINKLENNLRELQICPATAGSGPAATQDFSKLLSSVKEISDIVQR
UniProt O15440: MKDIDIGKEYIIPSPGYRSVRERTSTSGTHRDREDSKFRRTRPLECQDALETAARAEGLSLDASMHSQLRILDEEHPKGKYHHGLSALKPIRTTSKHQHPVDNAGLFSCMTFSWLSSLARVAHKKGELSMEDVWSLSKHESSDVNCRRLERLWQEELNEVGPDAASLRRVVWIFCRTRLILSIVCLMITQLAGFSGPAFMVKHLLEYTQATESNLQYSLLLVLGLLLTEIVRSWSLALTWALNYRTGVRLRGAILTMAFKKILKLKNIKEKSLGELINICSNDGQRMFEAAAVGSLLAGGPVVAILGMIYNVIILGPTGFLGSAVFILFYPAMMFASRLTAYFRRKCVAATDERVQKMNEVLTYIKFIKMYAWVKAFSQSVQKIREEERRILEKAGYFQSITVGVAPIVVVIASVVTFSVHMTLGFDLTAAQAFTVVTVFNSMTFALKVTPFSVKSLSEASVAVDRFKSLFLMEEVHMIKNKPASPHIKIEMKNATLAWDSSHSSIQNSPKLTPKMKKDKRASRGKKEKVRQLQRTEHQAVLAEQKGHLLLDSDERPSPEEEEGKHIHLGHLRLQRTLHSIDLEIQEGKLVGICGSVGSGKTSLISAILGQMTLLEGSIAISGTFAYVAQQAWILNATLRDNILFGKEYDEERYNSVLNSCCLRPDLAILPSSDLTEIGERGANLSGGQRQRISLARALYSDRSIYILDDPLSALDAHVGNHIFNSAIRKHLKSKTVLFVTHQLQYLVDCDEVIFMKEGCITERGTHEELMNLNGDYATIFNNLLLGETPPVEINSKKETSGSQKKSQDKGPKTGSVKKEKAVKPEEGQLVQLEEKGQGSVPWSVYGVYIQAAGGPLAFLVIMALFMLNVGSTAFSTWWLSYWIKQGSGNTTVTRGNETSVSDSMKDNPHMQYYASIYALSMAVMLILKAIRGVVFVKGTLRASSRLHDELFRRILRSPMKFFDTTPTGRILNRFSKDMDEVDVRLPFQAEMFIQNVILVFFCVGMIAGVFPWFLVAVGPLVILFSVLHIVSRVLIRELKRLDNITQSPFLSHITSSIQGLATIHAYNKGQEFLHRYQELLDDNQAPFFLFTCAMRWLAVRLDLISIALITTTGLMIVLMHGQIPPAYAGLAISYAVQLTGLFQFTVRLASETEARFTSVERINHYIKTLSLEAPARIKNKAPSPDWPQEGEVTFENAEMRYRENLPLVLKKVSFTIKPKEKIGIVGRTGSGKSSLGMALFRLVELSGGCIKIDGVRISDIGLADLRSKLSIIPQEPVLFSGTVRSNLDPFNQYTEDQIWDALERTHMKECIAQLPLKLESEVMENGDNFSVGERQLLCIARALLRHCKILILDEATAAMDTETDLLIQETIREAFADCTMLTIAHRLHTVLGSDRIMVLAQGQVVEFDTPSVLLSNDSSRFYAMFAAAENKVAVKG
UniProt Q9NUQ8: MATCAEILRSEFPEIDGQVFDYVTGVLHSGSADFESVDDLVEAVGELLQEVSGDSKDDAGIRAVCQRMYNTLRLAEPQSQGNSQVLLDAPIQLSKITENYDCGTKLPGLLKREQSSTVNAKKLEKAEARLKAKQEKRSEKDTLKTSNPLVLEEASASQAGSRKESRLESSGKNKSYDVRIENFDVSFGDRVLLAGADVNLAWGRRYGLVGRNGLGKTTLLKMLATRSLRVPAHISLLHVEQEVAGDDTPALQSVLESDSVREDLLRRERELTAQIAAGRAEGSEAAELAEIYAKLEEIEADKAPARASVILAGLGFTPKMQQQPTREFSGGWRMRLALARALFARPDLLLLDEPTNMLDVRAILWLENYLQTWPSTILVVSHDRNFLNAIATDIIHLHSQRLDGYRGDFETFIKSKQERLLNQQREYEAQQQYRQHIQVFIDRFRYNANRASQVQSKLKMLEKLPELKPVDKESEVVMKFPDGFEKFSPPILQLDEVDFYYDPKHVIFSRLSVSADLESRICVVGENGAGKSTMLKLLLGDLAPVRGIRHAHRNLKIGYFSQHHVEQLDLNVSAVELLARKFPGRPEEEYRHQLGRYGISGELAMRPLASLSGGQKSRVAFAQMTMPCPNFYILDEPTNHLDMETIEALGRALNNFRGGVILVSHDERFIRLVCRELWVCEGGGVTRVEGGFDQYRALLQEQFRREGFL
UniProt O95870: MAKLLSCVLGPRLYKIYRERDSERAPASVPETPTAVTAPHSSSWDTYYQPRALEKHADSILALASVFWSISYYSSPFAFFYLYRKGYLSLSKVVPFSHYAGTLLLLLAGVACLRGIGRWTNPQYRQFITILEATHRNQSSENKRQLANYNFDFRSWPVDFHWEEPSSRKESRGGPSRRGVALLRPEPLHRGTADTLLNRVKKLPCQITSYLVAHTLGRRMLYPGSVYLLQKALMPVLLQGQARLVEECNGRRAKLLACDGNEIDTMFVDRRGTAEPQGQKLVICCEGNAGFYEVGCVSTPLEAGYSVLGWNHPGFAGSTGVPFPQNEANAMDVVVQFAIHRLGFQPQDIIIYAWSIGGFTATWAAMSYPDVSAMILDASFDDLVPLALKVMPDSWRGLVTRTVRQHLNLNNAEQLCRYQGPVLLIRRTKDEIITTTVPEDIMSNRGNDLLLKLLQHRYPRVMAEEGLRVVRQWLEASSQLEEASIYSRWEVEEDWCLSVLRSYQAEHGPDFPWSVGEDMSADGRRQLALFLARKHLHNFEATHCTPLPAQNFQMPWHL
UniProt Q9UKU7: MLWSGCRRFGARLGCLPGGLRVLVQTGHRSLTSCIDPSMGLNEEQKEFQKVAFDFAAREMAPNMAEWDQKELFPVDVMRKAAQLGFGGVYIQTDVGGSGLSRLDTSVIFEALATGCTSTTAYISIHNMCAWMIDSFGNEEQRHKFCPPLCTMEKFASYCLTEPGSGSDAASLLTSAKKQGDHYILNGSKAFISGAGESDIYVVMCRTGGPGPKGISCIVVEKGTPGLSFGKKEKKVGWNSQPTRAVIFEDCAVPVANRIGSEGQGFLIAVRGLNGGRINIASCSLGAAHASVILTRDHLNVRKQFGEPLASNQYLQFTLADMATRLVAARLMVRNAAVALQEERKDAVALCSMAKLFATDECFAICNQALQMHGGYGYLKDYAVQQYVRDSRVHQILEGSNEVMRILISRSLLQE
UniProt Q13685: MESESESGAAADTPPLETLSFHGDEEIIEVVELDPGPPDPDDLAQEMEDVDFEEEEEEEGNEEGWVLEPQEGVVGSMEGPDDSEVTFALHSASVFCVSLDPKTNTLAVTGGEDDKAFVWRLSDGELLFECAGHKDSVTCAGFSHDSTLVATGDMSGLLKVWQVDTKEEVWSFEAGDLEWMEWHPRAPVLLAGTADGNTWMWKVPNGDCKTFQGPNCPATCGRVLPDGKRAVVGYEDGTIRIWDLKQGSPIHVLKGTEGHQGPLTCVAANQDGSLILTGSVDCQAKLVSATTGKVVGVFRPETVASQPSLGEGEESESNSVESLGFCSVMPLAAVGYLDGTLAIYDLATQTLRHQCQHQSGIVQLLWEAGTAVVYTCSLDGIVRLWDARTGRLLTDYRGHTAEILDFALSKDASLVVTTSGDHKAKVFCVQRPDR
UniProt Q86V21, 4-24: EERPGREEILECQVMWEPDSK
UniProt Q9BZC7, 1362-1382: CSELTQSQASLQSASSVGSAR
UniProt Q9NRK6, 570-605: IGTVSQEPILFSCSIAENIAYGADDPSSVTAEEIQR
UniProt P33897, 713-745: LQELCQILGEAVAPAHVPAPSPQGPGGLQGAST

Key:
[1] = compound: ClCC(=O)N[C@@H]1CCCc2ccccc12; assay: log2 mean competition ratio of IA-DTB cysteine labelling (DMSO/compound) (log2 ratio); higher = stronger cysteine engagement by compound; conditions: treatment time: 4 h, cell line lysate: HEK293T
Experimental: (§1)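 IA-DTB competitive cysteine chemoproteomics in HEK293T RIPA lysate. Lysates were treated with compound 29 or 30 at 50 or 200 µM for 4 h, then IA-DTB (500 µM, 1 h), trypsin-digested, NeutrAvidin-enriched and analysed by diaPASEF. Competition ratio = intensity DMSO / intensity compound (n=4 treated, n=64 DMSO); binding: mean log2 CR ≥ 1 and p ≤ 0.05 plus QC filters. Target is the cysteine site.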

[2] = compound: ClCC(=O)N[C@H]1CCCc2ccccc12; assay: as above; conditions: treatment time: 4 h, cell line lysate: HEK293T
Experimental: as §1

ABCC1 C730 (UniProt P33527) was tested, and the “log2 mean competition ratio” value ([1]; 50 µM) was -0.0559 and the “log2 mean competition ratio” value ([1]; 200 µM) was -0.204.
With ACAT1 C119 the “log2 mean competition ratio” value ([1]; 50 µM) was -0.178 and the “log2 mean competition ratio” value ([1]; 200 µM) was 1.1.
With ABHD5 C140 (UniProt Q8WTS1) the “log2 mean competition ratio” value ([1]; 50 µM) was -0.251 and the “log2 mean competition ratio” value ([1]; 200 µM) was 0.132.
With ACAP2 C468 (UniProt Q15057) the “log2 mean competition ratio” value ([1]; 50 µM) was 0.0256 and the “log2 mean competition ratio” value ([1]; 200 µM) was -0.165.
For ABR C201 (UniProt Q12979), the “log2 mean competition ratio” value ([1]; 50 µM) was 0.508 and the “log2 mean competition ratio” value ([1]; 200 µM) was 0.148.
For ACADS C151 (UniProt P16219), the “log2 mean competition ratio” value ([1]; 50 µM) was 0.201 and the “log2 mean competition ratio” value ([1]; 200 µM) was 0.181.
ABCB8 C323 (UniProt Q9NUT2) was tested, and the “log2 mean competition ratio” value ([1]; 50 µM) was -0.121 and the “log2 mean competition ratio” value ([1]; 200 µM) was 0.346.
With ABL1 C369 (UniProt P00519) the “log2 mean competition ratio” value ([1]; 50 µM) was -0.0819 and the “log2 mean competition ratio” value ([1]; 200 µM) was 0.0455.
For ABCC5 C280 (UniProt O15440), the “log2 mean competition ratio” value ([1]; 50 µM) was -0.459 and the “log2 mean competition ratio” value ([1]; 200 µM) was -0.0452.
For ABR C667 (UniProt Q12979), the “log2 mean competition ratio” value ([1]; 50 µM) was -0.168 and the “log2 mean competition ratio” value ([1]; 200 µM) was -0.0639.
With ACADS C246 (UniProt P16219) the “log2 mean competition ratio” value ([1]; 50 µM) was -0.0515 and the “log2 mean competition ratio” value ([1]; 200 µM) was -0.184.
For ACACA C1396 (UniProt Q13085), the “log2 mean competition ratio” value ([1]; 50 µM) was -0.0564 and the “log2 mean competition ratio” value ([1]; 200 µM) was -0.254.
For ABCF3 C522 (UniProt Q9NUQ8), the “log2 mean competition ratio” value ([1]; 50 µM) was -0.0768 and the “log2 mean competition ratio” value ([1]; 200 µM) was -0.00877.
For ACAP2 C53 (UniProt Q15057), the “log2 mean competition ratio” value ([1]; 50 µM) was -0.162 and the “log2 mean competition ratio” value ([1]; 200 µM) was -0.233.
With ABCF3 C680 (UniProt Q9NUQ8) the “log2 mean competition ratio” value ([1]; 50 µM) was -0.196 and the “log2 mean competition ratio” value ([1]; 200 µM) was -0.254.
For AASDH C13 (UniProt Q4L235), the “log2 mean competition ratio” value ([1]; 50 µM) was 0.0178 and the “log2 mean competition ratio” value ([1]; 200 µM) was -0.0208.
In the case of AAK1 C87, the “log2 mean competition ratio” value ([1]; 50 µM) is reported as -0.00163 and the “log2 mean competition ratio” value ([1]; 200 µM) is reported as 0.0585.
For AAAS C368 (UniProt Q9NRG9), the “log2 mean competition ratio” value ([1]; 50 µM) was -0.0221 and the “log2 mean competition ratio” value ([1]; 200 µM) was -0.0278.
ABRAXAS2 C237 (UniProt Q15018) was tested, and the “log2 mean competition ratio” value ([1]; 50 µM) was -0.196 and the “log2 mean competition ratio” value ([1]; 200 µM) was -0.102.
For ACAP2 C10 (UniProt Q15057), the “log2 mean competition ratio” value ([1]; 50 µM) was -0.194 and the “log2 mean competition ratio” value ([1]; 200 µM) was 0.767.
ABHD16A C258 (UniProt O95870) was tested, and the “log2 mean competition ratio” value ([1]; 50 µM) was 0.0814 and the “log2 mean competition ratio” value ([1]; 200 µM) was 0.329.
With ACAD8 C251 (UniProt Q9UKU7) the “log2 mean competition ratio” value ([1]; 50 µM) was -0.302 and the “log2 mean competition ratio” value ([1]; 200 µM) was -0.101.
With ABCC5 C347 (UniProt O15440) the “log2 mean competition ratio” value ([1]; 50 µM) was -0.0745 and the “log2 mean competition ratio” value ([1]; 200 µM) was 0.197.
With AAMP C428 (UniProt Q13685) the “log2 mean competition ratio” value ([1]; 50 µM) was 0.137 and the “log2 mean competition ratio” value ([1]; 200 µM) was -0.0573.
With ACAD8 C351 (UniProt Q9UKU7) the “log2 mean competition ratio” value ([1]; 50 µM) was -0.0641 and the “log2 mean competition ratio” value ([1]; 200 µM) was 0.115.
In the case of ACACA C1297 (UniProt Q13085), the “log2 mean competition ratio” value ([1]; 50 µM) is reported as -0.268 and the “log2 mean competition ratio” value ([1]; 200 µM) is reported as 0.039.
ABHD16A C416 (UniProt O95870) was tested, and the “log2 mean competition ratio” value ([1]; 50 µM) was 0.0197 and the “log2 mean competition ratio” value ([1]; 200 µM) was 0.329.
With AACS C15 (UniProt Q86V21) the “log2 mean competition ratio” value ([1]; 50 µM) was -0.315 and the “log2 mean competition ratio” value ([1]; 200 µM) was 0.215.
ABCC5 C146 (UniProt O15440) was tested, and the “log2 mean competition ratio” value ([1]; 50 µM) was -0.243 and the “log2 mean competition ratio” value ([1]; 200 µM) was 0.507.
In the case of ABHD6 C134 (UniProt Q9BV23), the “log2 mean competition ratio” value ([1]; 50 µM) is reported as -0.255 and the “log2 mean competition ratio” value ([1]; 200 µM) is reported as 0.13.
In the case of ABCA2 C1362 (UniProt Q9BZC7), the “log2 mean competition ratio” value ([1]; 50 µM) is reported as 0.264 and the “log2 mean competition ratio” value ([1]; 200 µM) is reported as 0.473.
ACAT1 C126 was tested, and the “log2 mean competition ratio” value ([2]; 50 µM) was 0.406 and the “log2 mean competition ratio” value ([2]; 200 µM) was 0.487.
For ABCB10 C582 (UniProt Q9NRK6), the “log2 mean competition ratio” value ([1]; 50 µM) was -0.355, the “log2 mean competition ratio” value ([1]; 200 µM) was -0.343 and the “log2 mean competition ratio” value ([2]; 50 µM) was -0.609. The “log2 mean competition ratio” value ([2]; 200 µM) was -0.185.
With ACAT1 C196 the “log2 mean competition ratio” value ([1]; 50 µM) was 0.21, the “log2 mean competition ratio” value ([1]; 200 µM) was 0.0252 and the “log2 mean competition ratio” value ([2]; 50 µM) was 0.2. The “log2 mean competition ratio” value ([2]; 200 µM) was -0.105.
AAK1 C319 was tested, and the “log2 mean competition ratio” value ([1]; 50 µM) was -0.231, the “log2 mean competition ratio” value ([1]; 200 µM) was -0.408 and the “log2 mean competition ratio” value ([2]; 50 µM) was -0.0663. For the same target, the “log2 mean competition ratio” value ([2]; 200 µM) was -0.569.
With ABCF3 C102 (UniProt Q9NUQ8) the “log2 mean competition ratio” value ([1]; 50 µM) was 0.0893, the “log2 mean competition ratio” value ([1]; 200 µM) was -0.23 and the “log2 mean competition ratio” value ([2]; 50 µM) was 0.0416. The “log2 mean competition ratio” value ([2]; 200 µM) was -0.104.
In the case of AASS C534, the “log2 mean competition ratio” value ([1]; 50 µM) is reported as -0.0113, the “log2 mean competition ratio” value ([1]; 200 µM) is reported as 0.0134 and the “log2 mean competition ratio” value ([2]; 50 µM) is reported as 0.034. For the same target, the “log2 mean competition ratio” value ([2]; 200 µM) was -0.0396.
For ABCD1 C599 (UniProt P33897), the “log2 mean competition ratio” value ([1]; 50 µM) was 0.0414, the “log2 mean competition ratio” value ([1]; 200 µM) was -0.107 and the “log2 mean competition ratio” value ([2]; 50 µM) was 0.131. For the same target, the “log2 mean competition ratio” value ([2]; 200 µM) was -0.0892.
For ABCD1 C717 (UniProt P33897), the “log2 mean competition ratio” value ([1]; 50 µM) was -0.00823, the “log2 mean competition ratio” value ([1]; 200 µM) was 0.0343 and the “log2 mean competition ratio” value ([2]; 50 µM) was 0.101. For the same target, the “log2 mean competition ratio” value ([2]; 200 µM) was -0.27.
